We go through one substance from patent publication US7897638B2, “Synthesis of nitrodibenzylfuran chromophore for photodeprotection of organic molecules” (Philadelphia Health & Education Corporation, priority 2005, dated 2011).

The nature of the series: Quantum yield of photolysis by comparison with MNI-glutamate, HPLC. Format: physicochemical. An excerpt:
Inventors measured the quantum yield of photolysis of NDBF-EGTA by comparison with a known standard, 4-methoxy-7-nitroindolinyl(MNI)-glutamate (Matsuzaki, et al., 1999). A solution containing NDBF-EGTA and MNI-glutamate was photolyzed at 350 nm, in order to determine the relative % photolysis of the two caged compounds. The concentrations of the two compounds were set so that their chromophores would absorb the same amount of light (MNI/NDBF ratio 3.7:1), and so that the total optical density was 0.4. Under these conditions the same number of excited states are created simultaneously for both cages, making determination of the quantum for NBDF-EGTA more reliable. As a control, both cages were photolyzed separately to check that there was no interference from simultaneous photolysis. Inosine was also included in the photolysis reaction mixture, as a photochemically inert standard. MNI-glutamate has a quantum yield of photolysis of 0.085. […] Saturating [Ca] had no effect on this value.

On to NDBF-EGTA, for which the “photolysis speed relative to MNI-glutamate” value (one-photon, 350 nm, HPLC) is 6-7 times. For the same substance, where the note is “saturating [Ca]”, the “effect of saturating [Ca] on quantum yield of photolysis” value is “no effect”.
